# Test results from article PMC11421016, “Biotransformation and Epithelial Toxicity of Prenylated Phenolics from Licorice Roots (Glycyrrhiza spp.) in 3D Apical-Out Mucus-Producing Human Enteroids” (Journal of Agricultural and Food Chemistry, 2024).
# Tested on: human ileal apical-out enteroids
# Assay: Cytotoxicity by LDH leakage assay in apical-out enteroids
# Type: cell-based
# Conditions: apical-out enteroids vs MIC against Gram-positive bacteria (ref 17)
# Procedure: Cytotoxicity and effects on cell viability after exposure to glab, licoA, and glycy in apical-out and apical-in enteroids (6.25–500 μg mL^–1) and proliferating Caco-2 cells (3.13–100 μg mL^–1) were determined by LDH leakage (Section 2.6.1) and WST-1 assays (Section 2.6.2), respectively. For this, stock solutions of 50 mg mL^–1 of glab, licoA, and glycy in DMSO were used. […] An overview of the experimental conditions for the exposure experiments with glab, licoA, and glycy is shown in Table S2 (Supporting Information). In brief, apical-out and apical-in enteroids were grown for 7–10 days in OGM (∼200 enteroids per dome), after which the medium was changed to ODM (supplemented with 5 μM DAPT) to initiate enteroid differentiation. To generate apical-out enteroids, MG was removed from apical-in enteroids in OGM at day 7–10, as described in Section 2.3, and suspended in supplemented ODM. After 3 days in ODM, the effects on cytotoxicity and cell viability of glab, licoA, and glycy in apical-out and apical-in enteroids (passages between 3 and 17) were assessed after 4 and 24 h of incubation. For apical-out enteroids in a suspension, enteroids were pelleted by centrifugation (2 min, 200g, RT), after which the ODM was removed and 500 μL of the experimental agent was added. […]
# Cytotoxic effects of glab, licoA, and glycy were assessed by measuring leakage of intracellular lactate dehydrogenase (LDH) in the supernatant and analyzed using an LDH cytotoxicity detection kit (Roche Applied Science, Almere, The Netherlands), according to the manufacturer’s instructions. The LDH activity in the supernatant was expressed as the percentage of the maximum releasable LDH in enteroids or Caco-2 cells (enteroids or Caco-2 cells treated with 1% (v/v) Triton X-100) and calculated with eq 1. […] 1 in which exp. value is the UV absorbance at 492 nm (Tecan Spark or Tecan Infinite 200 Pro, Tecan Group Ltd., Zürich, Switzerland), background control is the medium with corresponding concentration of glab, licoA, or glycy, and high control is the maximum releasable LDH in enteroids or Caco-2 cells. […]
row,Structure (SMILES),highest nontoxic concentration relative to MIC
1,CC1(C)C=Cc2c(ccc3c2OC[C@@H](c2ccc(O)cc2O)C3)O1 [glabridin],20 times
2,COc1c(CC=C(C)C)c(O)cc2oc(=O)c(-c3ccc(O)cc3O)cc12 [glycycoumarin],at least 40 times
3,C=CC(C)(C)c1cc(/C=C/C(=O)c2ccc(O)cc2)c(OC)cc1O [licochalcone A],at least 40 times
